# The list shows only some results of the screen, not a fair sample: it is rich in T/C values a quarter to a half above the control, in often repeated tests (any T/C) and in doses without a T/C. Further doses and runs are listed elsewhere. T/C is the treated group as % of the vehicle group. Some entries give survivors of the animals treated and no T/C: the source files T/C as zero there, which appears to mark a toxic dose or a test without result, not a measured value. Some doses without a T/C left all or most animals alive at the check, yet need not have been tolerated: the source hardly ever lists a survival T/C far under the control, and the zero likely stands for such cases as well. Counts of survivors are from the toxicity check (mostly the fifth day) where no day follows; animals may have died later. Schedule codes are those of the source, read here as Q, the interval in days (D) or hours (H), X, the number of doses. Some entries were tested several times; their values stand side by side, smallest first. For survival time, this PubChem deposit counts one and a half times the control or more as active, and values a quarter to a half above the control carry no call in these data; other NCI protocols may use other cut-offs. Marks such as (2×) count equal records among those shown.
# Test system: CD2F1 mice, P388/ADR leukemia ip, median survival T/C
# Test: NCI In Vivo Anticancer Drug Screen. Data for tumor model P388 Leukemia resistant to Adriamycin; NSC 123127, Developed at Scr 08 (intraperitoneal) in CD2F1 (CDF1) mice
# Conditions: T/C endpoint: median survival time, higher T/C = longer survival
# Experimental: The antitumor activity of compounds was measured in mice bearing transplantable tumors. Survival or tumor size were measured and the results are expressed as the measurement made in the treated group (T) divided by the measurement made in the vehicle treated control group (C). The tumor model used in this assay is P388 Leukemia resistant to Adriamycin; NSC 123127, Developed at Scr 08 (intraperitoneal) in CD2F1 (CDF1) mice
# [1] = dose: 25.0 mg/kg/injection, schedule: Q01DX005 (ip), vehicle: saline with Tween-80
# [2] = dose: 85.0 mg/kg/injection, schedule: Q01DX001 (ip), vehicle: water
# [3] = dose: 15.0 mg/kg/injection, schedule: Q01DX005 (ip), vehicle: suspension in saline
structure (smiles),measurement,setting,value
[CH3][Sn]([CH3])([Cl])[c]1cc[c]([Sn]([CH3])([CH3])[Cl])cc1,survivor count,"dose: 3.12 mg/kg/injection, schedule: Q01DX005 (ip), vehicle: suspension in saline",0 of 10
CO[C@@]12[C@@H]3N[C@@H]3CN1C1=C(C(=O)C(N3CCCC3)=C(C)C1=O)[C@@H]2COC(N)=O,T/C,"dose: 0.78 mg/kg/injection, schedule: Q01DX005 (ip), vehicle: saline with Tween-80",129 % of control
same,T/C,"dose: 1.56 mg/kg/injection, schedule: Q01DX005 (ip), vehicle: saline with Tween-80",126 and 131 % of control
same,T/C,"dose: 2.25 mg/kg/injection, schedule: Q01DX005 (ip), vehicle: saline with Tween-80",129 % of control
same,T/C,"dose: 3.12 mg/kg/injection, schedule: Q01DX005 (ip), vehicle: saline with Tween-80",129 % of control
same,T/C,"dose: 3.13 mg/kg/injection, schedule: Q01DX005 (ip), vehicle: saline with Tween-80",147 % of control
same,T/C,"dose: 6.25 mg/kg/injection, schedule: Q01DX005 (ip), vehicle: saline with Tween-80",129 % of control
same,survivor count,[1],10 of 10
CCN(CC)CCn1[nH]c2c3ccc(=O)cc3sc3c(NCCN)ccc1c32,survivor count,"dose: 25.0 mg/kg/injection, schedule: Q01DX005 (ip), vehicle: water",9 of 10
Cc1c2ccncc2c(C)c2c1[nH]c1ccccc12,T/C,"dose: 90.0 mg/kg/injection, schedule: Q04DX002 (ip), vehicle: saline with Tween-80",138 % of control
same,T/C,"dose: 134.0 mg/kg/injection, schedule: Q04DX002 (ip), vehicle: saline with Tween-80",135 % of control
same,T/C,"dose: 200.0 mg/kg/injection, schedule: Q04DX002 (ip), vehicle: saline with Tween-80",144 % of control
C[C@H](N)C(=O)N[C@@H]1[C@H]2C(=C(O)C[C@@H](O)[C@@H]2O)C(=O)O[C@@H]1C,survivor count,"dose: 2400.0 mg/kg/injection, schedule: Q01DX005 (ip), vehicle: saline",1 of 10 and 7 of 10
CCOc1ccc(C(C)c2cc3c(cc2OC)OCO3)cc1 (configuration not stated),T/C,"dose: 72.0 mg/kg/injection, schedule: Q01DX005 (ip), vehicle: distilled water + Tween-80",135 % of control
same,T/C,"dose: 120.0 mg/kg/injection, schedule: Q01DX005 (ip), vehicle: distilled water + Tween-80",148 % of control
same,T/C,"dose: 200.0 mg/kg/injection, schedule: Q01DX005 (ip), vehicle: distilled water + Tween-80",139 % of control
same,survivor count,"dose: 400.0 mg/kg/injection, schedule: Q01DX005 (ip), vehicle: distilled water + Tween-80",10 of 10
same,survivor count,"dose: 555.55 mg/kg/injection, schedule: Q01DX005 (ip), vehicle: distilled water + Tween-80",9 of 10
same,survivor count,"dose: 555.56 mg/kg/injection, schedule: Q01DX005 (ip), vehicle: distilled water + Tween-80",9 of 10
COc1cc(NCc2ccc3nc(N)nc(N)c3c2C)cc(OC)c1OC,T/C,"dose: 27.0 mg/kg/injection, schedule: Q01DX009 (ip), vehicle: distilled water + Tween-80",135 % of control
same,T/C,"dose: 40.0 mg/kg/injection, schedule: Q01DX009 (ip), vehicle: distilled water + Tween-80",130 % of control
same,T/C,"dose: 60.0 mg/kg/injection, schedule: Q01DX009 (ip), vehicle: distilled water + Tween-80",146 % of control
O=CC(CO)CC(C=O)n1cnc2c(=O)[nH]cnc21 (configuration not stated),T/C,"dose: 50.0 mg/kg/injection, schedule: Q01DX005 (ip), vehicle: saline, evaluated on day 27",145 % of control
same,T/C,"dose: 50.0 mg/kg/injection, schedule: Q01DX005 (ip), vehicle: saline, evaluated on day 30",139 % of control
same,T/C,"dose: 100.0 mg/kg/injection, schedule: Q01DX005 (ip), vehicle: saline",141 % of control
O=C1C=CC2OC(c3ccccc3)C(O)C2O1 (configuration not stated),T/C,[1],132 % of control
NCCCN=c1ccc2c3c1c(O)c1c(O)ccc(=O)c1c3[nH]n2CCNCCO,T/C,"dose: 37.0 mg/kg/injection, schedule: Q01DX001 (ip), vehicle: water, evaluated on day 30",104 % of control (2×)
same,T/C,"dose: 37.0 mg/kg/injection, schedule: Q01DX001 (ip), vehicle: water, evaluated on day 45",106 % of control (2×)
same,T/C,"dose: 56.0 mg/kg/injection, schedule: Q01DX001 (ip), vehicle: water, evaluated on day 30",106 % of control (2×)
same,T/C,"dose: 56.0 mg/kg/injection, schedule: Q01DX001 (ip), vehicle: water, evaluated on day 45",100 % of control (2×)
same,T/C,[2],113 % of control (2×)
same,survivor count,[2],3 of 10
same,survivor count,"dose: 125.0 mg/kg/injection, schedule: Q01DX001 (ip), vehicle: water",3 of 10
Nc1nc(Br)nc2c1ncn2C1CC(O)C(CO)O1 (configuration not stated),T/C,"dose: 1.5 mg/kg/injection, schedule: Q01DX005 (ip), vehicle: suspension in saline",127 % of control
same,T/C,"dose: 3.0 mg/kg/injection, schedule: Q01DX005 (ip), vehicle: suspension in saline",131 % of control
same,T/C,"dose: 6.0 mg/kg/injection, schedule: Q01DX005 (ip), vehicle: suspension in saline",147 % of control
same,T/C,"dose: 12.0 mg/kg/injection, schedule: Q01DX005 (ip), vehicle: suspension in saline",142 % of control
same,T/C,[3],135 % of control
same,T/C,"dose: 24.0 mg/kg/injection, schedule: Q01DX005 (ip), vehicle: suspension in saline",138 % of control
same,T/C,"dose: 30.0 mg/kg/injection, schedule: Q01DX005 (ip), vehicle: suspension in saline",136 % of control
same,T/C,"dose: 60.0 mg/kg/injection, schedule: Q01DX005 (ip), vehicle: suspension in saline",134 % of control
same,T/C,"dose: 120.0 mg/kg/injection, schedule: Q01DX005 (ip), vehicle: suspension in saline",137 % of control
same,survivor count,"dose: 240.0 mg/kg/injection, schedule: Q01DX005 (ip), vehicle: suspension in saline",3 of 10
O=NN(CCCl)C(=O)NCCCl,T/C,"dose: 10.0 mg/kg/injection, schedule: Q01DX001 (ip), vehicle: saline + alcohol",129 and 142 % of control
same,survivor count,"dose: 80.0 mg/kg/injection, schedule: Q01DX001 (ip), vehicle: saline + alcohol",10 of 10
c1ccc(OCC2CO2)c(OCC2CO2)c1 (configuration not stated),T/C,"dose: 15.0 mg/kg/injection, schedule: Q01DX005 (ip), vehicle: saline with Tween-80",133 % of control
same,T/C,"dose: 60.0 mg/kg/injection, schedule: Q01DX005 (ip), vehicle: saline with Tween-80",145 % of control
same,survivor count,"dose: 480.0 mg/kg/injection, schedule: Q01DX005 (ip), vehicle: saline with Tween-80",3 of 10
O=C(O)c1cc(C(=O)O)c(C(=O)O)cc1C(=O)O.[NH2-].[NH2-].[NH2-].[NH2-].[Pt+2].[Pt+2],T/C,"dose: 6.25 mg/kg/injection, schedule: Q01DX005 (ip), vehicle: saline",140 % of control
same,T/C,"dose: 9.0 mg/kg/injection, schedule: Q01DX005 (ip), vehicle: suspension in saline",134 % of control
same,T/C,"dose: 12.5 mg/kg/injection, schedule: Q01DX005 (ip), vehicle: saline",142 % of control
same,T/C,[3],129 % of control
same,survivor count,"dose: 50.0 mg/kg/injection, schedule: Q01DX005 (ip), vehicle: saline",4 of 6
same,survivor count,"dose: 69.44 mg/kg/injection, schedule: Q01DX005 (ip), vehicle: suspension in saline",5 of 10
[N-]=[N+]=CC(=O)CCC(NC(=O)OCc1ccccc1)C(=O)OCc1ccccc1 (configuration not stated),T/C,"dose: 50.0 mg/kg/injection, schedule: Q01DX005 (ip), vehicle: Klucel (hydroxypropylcellulose) (HPC)",136 % of control
same,T/C,"dose: 100.0 mg/kg/injection, schedule: Q01DX005 (ip), vehicle: Klucel (hydroxypropylcellulose) (HPC)",127 % of control
same,T/C,"dose: 167.0 mg/kg/injection, schedule: Q01DX005 (ip), vehicle: Klucel (hydroxypropylcellulose) (HPC)",138 % of control
